Reference: the supplement of paper PMC8728848
Some of the results follow.

Columns and labels:
Assay in all cases: glycan array binding signal (z-score within array); higher = stronger binding
Conditions in all cases: glycan notation: IUPAC condensed, linker removed
[1] = target: Neu5Ac(a2-8)Neu5Ac(a2-3)Gal(b1-3)GalNAc(b1-4)[Neu5Ac(a2-3)]Gal(b1-4)Glc
In short: (§1)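 From the Consortium for Functional Glycomics database, 3228 arrays were curated, keeping only those whose protein sequence was available. Binding is given as a within-array Z-score averaged across arrays sharing a protein sequence and across linkers. Negative Z-scores can be read as non-binding.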

[2] = target: Neu5Ac(a2-8)Neu5Ac(a2-3)Gal(b1-3)GalNAc(b1-4)[Neu5Ac(a2-8)Neu5Ac(a2-3)]Gal(b1-4)Glc
In short: as §1

[3] = target: Neu5Ac(a2-8)Neu5Ac(a2-3)Gal(b1-4)Glc
In short: as §1

[4] = target: Neu5Ac(a2-8)Neu5Ac(a2-3)Gal(b1-4)GlcNAc
In short: as §1

[5] = target: Neu5Ac(a2-8)Neu5Ac(a2-3)[Gal(b1-3)GalNAc(b1-4)]Gal(b1-4)Glc
In short: as §1

[6] = target: Neu5Ac(a2-8)Neu5Ac(a2-3)[GalNAc(b1-4)]Gal(b1-4)Glc
In short: as §1

[7] = target: Neu5Ac(a2-8)Neu5Ac(a2-8)Neu5Ac
In short: as §1

[8] = target: Neu5Ac(a2-8)Neu5Ac(a2-8)Neu5Ac(a2-3)Gal(b1-4)Glc
In short: as §1

[9] = target: Neu5Ac(a2-8)Neu5Ac(a2-8)Neu5Ac(a2-3)[Gal(b1-3)GalNAc(b1-4)]Gal(b1-4)Glc
In short: as §1

[10] = target: Neu5Ac(a2-8)Neu5Ac(a2-8)Neu5Ac(a2-3)[GalNAc(b1-4)]Gal(b1-4)Glc
In short: as §1

[11] = target: Neu5Ac(a2-8)Neu5Ac(a2-8)Neu5Ac(a2-8)Neu5Ac(a2-3)[GalNAc(b1-4)]Gal(b1-4)Glc
In short: as §1

[12] = target: Neu5Ac(a2-8)Neu5Gc(a2-3)Gal(b1-4)GlcNAc
In short: as §1

[13] = target: Neu5Ac(b2-6)Gal(b1-4)GlcNAc
In short: as §1

[14] = target: Neu5Ac(b2-6)GalNAc
In short: as §1

[15] = target: Neu5Ac9Ac(a2-3)Gal(b1-3)GlcNAc
In short: as §1

[16] = target: Neu5Ac9Ac(a2-3)Gal(b1-4)GlcNAc
In short: as §1

[17] = target: Neu5Ac9Ac(a2-6)Gal(b1-4)GlcNAc
In short: as §1

[18] = target: Neu5Gc(a2-3)Gal(b1-3)GlcNAc
In short: as §1

[19] = target: Neu5Gc(a2-3)Gal(b1-3)[Fuc(a1-4)]GlcNAc
In short: as §1

[20] = target: Neu5Gc(a2-3)Gal(b1-4)Glc
In short: as §1

[21] = target: Neu5Gc(a2-3)Gal(b1-4)GlcNAc
In short: as §1

[22] = target: Neu5Gc(a2-3)Gal(b1-4)GlcNAc(b1-3)Gal(b1-4)GlcNAc(b1-2)Man(a1-3)[Neu5Gc(a2-3)Gal(b1-4)GlcNAc(b1-3)Gal(b1-4)GlcNAc(b1-2)Man(a1-6)]Man(b1-4)GlcNAc(b1-4)GlcNAc
In short: as §1

[23] = target: Neu5Gc(a2-3)Gal(b1-4)[Fuc(a1-3)]GlcNAc
In short: as §1

[24] = target: Neu5Gc(a2-6)Gal(b1-4)GlcNAc
In short: as §1

[25] = target: Neu5Gc(a2-6)GalNAc
In short: as §1

[26] = target: Neu5Gc(a2-8)Neu5Ac(a2-3)Gal(b1-4)GlcNAc
In short: as §1

[27] = target: Neu5Gc(a2-8)Neu5Gc(a2-3)Gal(b1-4)GlcNAc
In short: as §1

[28] = target: Neu5Gc(a2-8)Neu5Gc(a2-3)Gal(b1-4)GlcNAc(b1-3)Gal(b1-4)GlcNAc
In short: as §1

[29] = target: Neu5Gc(a2-8)Neu5Gc(a2-6)Gal(b1-4)GlcNAc
In short: as §1

[30] = target: Neu5Gc(b2-6)Gal(b1-4)GlcNAc
In short: as §1

B1: LlpA1 (Pseudomonas fluorescens), Q4KHC3 (protein)
chain: MGSSHHHHHHSSGLVPRGSHMAWIRYDFTDNGSSVLPARYYMAPNQYLQSPNKRFKLLFQADGNLALYDGAQLAWVADQNTPFTNVSKGNKKDPMMVFMNYGFVLDDPLRGRIWSTTPSDPTMGSREDASLRAFTQVQDDGNIVTVDTIPHWYAPNGRVFTPAVGAAMIIGGTTELVPGQFYSAGEHSLVFQGDGNLVVYGPNSSVIWATYTQNKGGVRCVMQEDGNLVIYAANNGVVWQSGTGGHPGATIRLQANGSFTIVTERPVWARFGYTPTIKPPRVFYPDHKWKTGSYTWNNVF
What does the source list for B1?
glycan array binding signal (z-score) [1]: -0.693; glycan array binding signal (z-score) [2]: -0.003; glycan array binding signal (z-score) [3]: 0.054; glycan array binding signal (z-score) [4]: -0.552; glycan array binding signal (z-score) [5]: -0.148; glycan array binding signal (z-score) [6]: -0.414; glycan array binding signal (z-score) [7]: -0.363; glycan array binding signal (z-score) [8]: -0.122; glycan array binding signal (z-score) [9]: 0.473; glycan array binding signal (z-score) [10]: -0.21; glycan array binding signal (z-score) [11]: 0.121; glycan array binding signal (z-score) [12]: 8.89; glycan array binding signal (z-score) [13]: -0.022; glycan array binding signal (z-score) [14]: -0.764; glycan array binding signal (z-score) [15]: -0.223; glycan array binding signal (z-score) [16]: -0.488; glycan array binding signal (z-score) [17]: -0.615; glycan array binding signal (z-score) [18]: -0.477; glycan array binding signal (z-score) [19]: -0.218; glycan array binding signal (z-score) [20]: -0.626; glycan array binding signal (z-score) [21]: -0.809; glycan array binding signal (z-score) [22]: -0.474; glycan array binding signal (z-score) [23]: -0.843; glycan array binding signal (z-score) [24]: -0.079; glycan array binding signal (z-score) [25]: -0.102; glycan array binding signal (z-score) [26]: -0.61; glycan array binding signal (z-score) [27]: -0.474; glycan array binding signal (z-score) [28]: 0.305; glycan array binding signal (z-score) [29]: -0.546; glycan array binding signal (z-score) [30]: -0.167
